Reference: patent US20110195068A1, “PD-1 ANTAGONISTS AND METHODS OF USE THEREOF” (priority 2008, published 2011)
Results are given in words; binding and its absence hold for the method and conditions named. Some binding calls cover weakened binding; strength is not graded here.

Sequences of proteins named here, by UniProt entry; tags and fusion partners are left off. Residues count along the entry.
UniProt Q02242, residues 25-167: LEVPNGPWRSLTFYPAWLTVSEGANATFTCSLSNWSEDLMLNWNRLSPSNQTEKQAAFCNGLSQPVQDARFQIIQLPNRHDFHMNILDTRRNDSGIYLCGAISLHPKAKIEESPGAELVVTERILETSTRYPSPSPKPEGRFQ

Legend:
[1] = molecular target: recombinant mouse PD-1/Fc (R&D Systems) (mouse) (UniProt Q02242); test: ELISA, plate coated with recombinant mouse PD-1/Fc, OD450 against ug/ml B7-DC-Ig
[2] = molecular target: recombinant mouse PD-1/Fc (R&D Systems) (mouse) (UniProt Q02242); test: ELISA, plate coated with recombinant mouse PD-1/Fc, detection with biotin anti-mouse B7-DC clone 112

B1: murine B7-DC-Ig (wild type) (Fc fusion)
chain: LFTVTAPKEVYTVDVGSSVSLECDFDRRECTELEGIRASLQKVENDTSLQSERATLLEEQLPLGKALFHIPSVQVRDSGQYRCLVICGAAWDYKYLTVKVKASYMRIDTRILEVPGTGEVQLTCQARGYPLAEVSWQNVSVPANTSHIRTPEGLYQVTSVLRLKPQPSRNFSCMFWNAHMKELTSAIIDPLSRMEPKVPRTWEPRGPTIKPCPPCKCPAPNLLGGPSVFIFPPKIKDVLMISLSPIVTCVVVDVSEDDPDVQISWFVNNVEVHTAQTQTHREDYNSTLRVVSALPIQHQDWMSGKEFKCKVNNKDLPAPIERTISKPKGSVRAPQVYVLPPPEEEMTKKQVTLTCMVTDFMPEDIYVEWTNNGKTELNYKNTEPVLDSDGSYFMYSKLRVEKKNWVERNSYSCSVVHEGLHNHHTTKSFSRTPGK
modifications: Homodimer through the IgG2a hinge; one chain given.
[1]
  binding: binds
[2]
  binding: binds
